Results as given in the supplement of paper PMC10849652.
The list shows a part of the results.

By UniProt entry, the sequences of proteins in these tests, tags left out. Where a name states a change or a piece, a line headed by the entry shows the natural chain unless it says otherwise.
UniProt K7ELL7: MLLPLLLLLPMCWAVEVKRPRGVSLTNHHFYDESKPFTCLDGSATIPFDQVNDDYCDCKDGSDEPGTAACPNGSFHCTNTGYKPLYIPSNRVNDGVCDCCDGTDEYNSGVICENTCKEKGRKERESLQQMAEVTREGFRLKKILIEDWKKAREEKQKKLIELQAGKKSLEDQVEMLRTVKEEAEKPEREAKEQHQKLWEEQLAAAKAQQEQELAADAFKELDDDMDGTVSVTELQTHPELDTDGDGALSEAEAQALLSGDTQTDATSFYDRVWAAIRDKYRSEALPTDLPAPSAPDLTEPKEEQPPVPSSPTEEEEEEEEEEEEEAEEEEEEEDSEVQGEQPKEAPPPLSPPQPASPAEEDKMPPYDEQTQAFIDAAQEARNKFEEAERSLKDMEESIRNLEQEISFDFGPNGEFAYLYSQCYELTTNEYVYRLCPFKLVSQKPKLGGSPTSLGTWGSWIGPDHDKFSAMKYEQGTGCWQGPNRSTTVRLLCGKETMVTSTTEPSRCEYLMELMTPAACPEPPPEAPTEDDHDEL
UniProt Q9ULJ8: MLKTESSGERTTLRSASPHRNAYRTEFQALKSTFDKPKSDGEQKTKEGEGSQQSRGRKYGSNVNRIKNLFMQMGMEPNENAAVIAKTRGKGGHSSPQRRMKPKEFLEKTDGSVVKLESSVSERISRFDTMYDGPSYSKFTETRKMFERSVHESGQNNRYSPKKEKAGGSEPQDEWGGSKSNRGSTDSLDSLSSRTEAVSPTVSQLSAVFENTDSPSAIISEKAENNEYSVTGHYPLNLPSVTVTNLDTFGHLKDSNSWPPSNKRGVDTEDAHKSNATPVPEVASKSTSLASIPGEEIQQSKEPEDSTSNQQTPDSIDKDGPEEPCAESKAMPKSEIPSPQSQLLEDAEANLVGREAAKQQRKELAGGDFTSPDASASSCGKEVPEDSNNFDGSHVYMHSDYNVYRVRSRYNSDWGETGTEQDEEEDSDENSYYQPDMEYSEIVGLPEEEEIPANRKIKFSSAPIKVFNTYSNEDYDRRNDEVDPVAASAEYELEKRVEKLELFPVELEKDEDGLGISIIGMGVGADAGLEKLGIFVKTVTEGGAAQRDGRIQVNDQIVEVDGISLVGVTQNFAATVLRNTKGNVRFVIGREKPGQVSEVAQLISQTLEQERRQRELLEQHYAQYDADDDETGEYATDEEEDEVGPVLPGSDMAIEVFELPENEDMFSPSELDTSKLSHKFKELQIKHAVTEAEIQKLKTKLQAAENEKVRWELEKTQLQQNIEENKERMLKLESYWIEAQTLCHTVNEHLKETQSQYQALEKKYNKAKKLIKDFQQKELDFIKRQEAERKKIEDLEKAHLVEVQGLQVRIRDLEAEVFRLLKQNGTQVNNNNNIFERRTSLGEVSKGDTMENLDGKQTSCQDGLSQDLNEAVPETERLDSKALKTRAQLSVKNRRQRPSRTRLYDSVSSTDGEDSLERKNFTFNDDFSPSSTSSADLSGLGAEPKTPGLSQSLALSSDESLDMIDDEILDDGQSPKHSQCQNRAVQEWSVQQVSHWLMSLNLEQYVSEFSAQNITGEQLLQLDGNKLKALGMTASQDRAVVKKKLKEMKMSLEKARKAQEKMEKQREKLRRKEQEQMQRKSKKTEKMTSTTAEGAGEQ
UniProt Q04759: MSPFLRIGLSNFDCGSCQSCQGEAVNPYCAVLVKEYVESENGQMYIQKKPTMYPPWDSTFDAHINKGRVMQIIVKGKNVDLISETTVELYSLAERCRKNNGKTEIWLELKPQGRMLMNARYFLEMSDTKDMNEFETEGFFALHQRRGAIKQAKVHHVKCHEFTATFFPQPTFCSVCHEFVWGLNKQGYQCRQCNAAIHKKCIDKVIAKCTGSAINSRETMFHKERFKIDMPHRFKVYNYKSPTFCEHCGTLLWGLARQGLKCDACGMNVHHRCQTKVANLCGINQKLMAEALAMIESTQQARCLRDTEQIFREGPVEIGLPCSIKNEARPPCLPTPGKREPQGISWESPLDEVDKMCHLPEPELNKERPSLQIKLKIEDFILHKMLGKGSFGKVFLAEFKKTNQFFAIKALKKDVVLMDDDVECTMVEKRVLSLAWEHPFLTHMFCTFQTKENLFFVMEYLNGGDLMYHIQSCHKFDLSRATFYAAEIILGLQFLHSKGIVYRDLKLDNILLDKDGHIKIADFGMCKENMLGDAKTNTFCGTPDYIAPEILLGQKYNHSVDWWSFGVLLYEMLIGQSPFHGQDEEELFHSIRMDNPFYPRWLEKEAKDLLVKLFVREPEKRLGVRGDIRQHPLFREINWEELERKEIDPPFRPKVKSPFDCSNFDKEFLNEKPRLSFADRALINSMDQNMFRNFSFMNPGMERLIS
UniProt Q8WY54: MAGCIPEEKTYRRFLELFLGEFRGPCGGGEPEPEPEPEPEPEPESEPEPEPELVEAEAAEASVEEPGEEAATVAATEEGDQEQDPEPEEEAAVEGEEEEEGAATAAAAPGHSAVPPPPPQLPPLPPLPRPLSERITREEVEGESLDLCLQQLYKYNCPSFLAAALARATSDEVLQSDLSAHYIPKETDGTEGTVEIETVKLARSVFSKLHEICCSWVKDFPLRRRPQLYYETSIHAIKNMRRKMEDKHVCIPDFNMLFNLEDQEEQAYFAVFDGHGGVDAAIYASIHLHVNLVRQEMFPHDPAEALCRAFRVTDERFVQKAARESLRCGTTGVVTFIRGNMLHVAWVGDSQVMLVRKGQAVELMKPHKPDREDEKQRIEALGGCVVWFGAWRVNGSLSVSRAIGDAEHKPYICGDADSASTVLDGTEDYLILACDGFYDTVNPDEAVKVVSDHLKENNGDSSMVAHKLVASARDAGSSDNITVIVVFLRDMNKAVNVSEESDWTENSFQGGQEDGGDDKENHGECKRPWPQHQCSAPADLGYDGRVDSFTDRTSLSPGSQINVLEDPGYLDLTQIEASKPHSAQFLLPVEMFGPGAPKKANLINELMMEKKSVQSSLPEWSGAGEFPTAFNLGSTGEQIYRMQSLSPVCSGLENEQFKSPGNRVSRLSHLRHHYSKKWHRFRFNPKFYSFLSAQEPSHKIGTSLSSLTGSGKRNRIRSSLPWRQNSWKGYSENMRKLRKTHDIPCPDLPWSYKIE
UniProt Q12972: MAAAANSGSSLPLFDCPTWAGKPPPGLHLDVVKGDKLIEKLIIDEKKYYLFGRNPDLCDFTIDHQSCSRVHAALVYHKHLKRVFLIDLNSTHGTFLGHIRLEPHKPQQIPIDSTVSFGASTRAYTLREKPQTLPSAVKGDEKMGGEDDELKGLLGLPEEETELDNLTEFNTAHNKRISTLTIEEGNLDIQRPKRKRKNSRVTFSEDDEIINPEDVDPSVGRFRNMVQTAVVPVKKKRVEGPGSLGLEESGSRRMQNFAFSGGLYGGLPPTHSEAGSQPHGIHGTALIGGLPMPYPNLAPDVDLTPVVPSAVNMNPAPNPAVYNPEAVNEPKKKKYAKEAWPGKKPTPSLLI
UniProt Q96A00: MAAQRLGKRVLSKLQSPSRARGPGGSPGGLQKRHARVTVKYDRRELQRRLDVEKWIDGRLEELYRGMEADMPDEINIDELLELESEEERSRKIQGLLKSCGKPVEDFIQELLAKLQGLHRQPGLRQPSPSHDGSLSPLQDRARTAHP
UniProt P31323, whole entry, looked up: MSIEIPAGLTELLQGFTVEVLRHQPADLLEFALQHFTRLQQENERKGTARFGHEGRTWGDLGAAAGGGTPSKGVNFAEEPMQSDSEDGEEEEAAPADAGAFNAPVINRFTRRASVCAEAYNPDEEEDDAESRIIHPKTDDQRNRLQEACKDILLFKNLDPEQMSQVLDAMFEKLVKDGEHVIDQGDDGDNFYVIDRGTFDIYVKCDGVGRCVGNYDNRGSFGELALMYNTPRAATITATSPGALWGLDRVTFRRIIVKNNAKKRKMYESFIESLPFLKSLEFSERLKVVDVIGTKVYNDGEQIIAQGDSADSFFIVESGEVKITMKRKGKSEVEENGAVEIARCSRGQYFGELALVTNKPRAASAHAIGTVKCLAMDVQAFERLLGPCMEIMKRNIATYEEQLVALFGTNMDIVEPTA
UniProt Q9NY27: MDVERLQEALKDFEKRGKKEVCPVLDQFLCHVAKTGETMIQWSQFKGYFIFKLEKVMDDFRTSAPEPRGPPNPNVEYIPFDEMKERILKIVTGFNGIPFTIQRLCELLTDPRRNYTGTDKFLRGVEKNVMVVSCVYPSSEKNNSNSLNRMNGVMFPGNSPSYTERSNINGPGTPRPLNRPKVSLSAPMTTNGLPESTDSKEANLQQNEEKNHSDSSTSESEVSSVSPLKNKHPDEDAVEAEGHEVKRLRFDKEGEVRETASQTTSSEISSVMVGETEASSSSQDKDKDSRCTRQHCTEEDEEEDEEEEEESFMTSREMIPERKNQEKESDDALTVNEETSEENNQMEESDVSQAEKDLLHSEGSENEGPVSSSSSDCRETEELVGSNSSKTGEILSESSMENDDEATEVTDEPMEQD
UniProt Q8WUA2: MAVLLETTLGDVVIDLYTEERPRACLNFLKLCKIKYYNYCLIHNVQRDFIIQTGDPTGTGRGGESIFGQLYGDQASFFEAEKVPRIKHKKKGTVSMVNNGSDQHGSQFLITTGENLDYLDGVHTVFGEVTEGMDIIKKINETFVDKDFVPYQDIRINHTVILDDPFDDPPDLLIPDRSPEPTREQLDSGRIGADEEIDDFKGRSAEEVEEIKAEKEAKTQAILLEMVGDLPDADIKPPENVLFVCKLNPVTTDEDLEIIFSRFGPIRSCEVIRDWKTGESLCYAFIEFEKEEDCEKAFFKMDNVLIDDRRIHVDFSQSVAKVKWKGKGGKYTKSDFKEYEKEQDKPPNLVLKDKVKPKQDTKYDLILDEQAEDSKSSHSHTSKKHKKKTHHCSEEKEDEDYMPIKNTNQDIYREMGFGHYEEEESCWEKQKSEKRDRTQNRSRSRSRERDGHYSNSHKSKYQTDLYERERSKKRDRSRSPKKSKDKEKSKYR
UniProt Q05655: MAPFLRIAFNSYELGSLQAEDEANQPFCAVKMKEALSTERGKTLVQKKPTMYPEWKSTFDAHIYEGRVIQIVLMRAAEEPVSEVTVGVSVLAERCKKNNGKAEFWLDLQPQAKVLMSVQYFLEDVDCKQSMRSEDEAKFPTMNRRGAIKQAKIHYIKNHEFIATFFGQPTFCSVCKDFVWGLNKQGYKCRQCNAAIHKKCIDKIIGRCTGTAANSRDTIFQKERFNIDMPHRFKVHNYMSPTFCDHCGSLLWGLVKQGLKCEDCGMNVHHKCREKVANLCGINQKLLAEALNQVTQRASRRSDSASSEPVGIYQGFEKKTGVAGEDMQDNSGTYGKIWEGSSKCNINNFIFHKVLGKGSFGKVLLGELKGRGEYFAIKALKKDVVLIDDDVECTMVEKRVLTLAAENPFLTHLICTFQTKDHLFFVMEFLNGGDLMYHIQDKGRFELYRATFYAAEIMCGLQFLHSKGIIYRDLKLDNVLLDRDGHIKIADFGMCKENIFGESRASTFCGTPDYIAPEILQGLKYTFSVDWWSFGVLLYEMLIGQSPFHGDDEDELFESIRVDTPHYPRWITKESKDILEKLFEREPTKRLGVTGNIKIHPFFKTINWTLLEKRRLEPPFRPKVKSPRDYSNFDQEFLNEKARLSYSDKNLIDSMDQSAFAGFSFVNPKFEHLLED
UniProt Q9Y3C6: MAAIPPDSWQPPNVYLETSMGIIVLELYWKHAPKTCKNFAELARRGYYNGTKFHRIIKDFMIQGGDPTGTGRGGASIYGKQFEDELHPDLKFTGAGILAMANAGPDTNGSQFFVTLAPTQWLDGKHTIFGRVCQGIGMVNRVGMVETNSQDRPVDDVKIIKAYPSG
UniProt Q86WR7: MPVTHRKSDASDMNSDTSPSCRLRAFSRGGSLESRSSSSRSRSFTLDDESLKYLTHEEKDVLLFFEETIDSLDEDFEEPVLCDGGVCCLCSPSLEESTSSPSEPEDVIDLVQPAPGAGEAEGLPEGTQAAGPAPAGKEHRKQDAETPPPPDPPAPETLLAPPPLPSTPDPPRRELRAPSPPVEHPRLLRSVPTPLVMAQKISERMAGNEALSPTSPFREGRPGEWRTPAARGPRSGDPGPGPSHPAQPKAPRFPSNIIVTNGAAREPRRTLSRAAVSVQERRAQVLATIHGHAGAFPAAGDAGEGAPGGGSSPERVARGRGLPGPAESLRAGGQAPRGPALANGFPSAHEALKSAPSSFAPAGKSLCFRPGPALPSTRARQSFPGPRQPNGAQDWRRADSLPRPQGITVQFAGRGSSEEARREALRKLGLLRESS
UniProt Q15435: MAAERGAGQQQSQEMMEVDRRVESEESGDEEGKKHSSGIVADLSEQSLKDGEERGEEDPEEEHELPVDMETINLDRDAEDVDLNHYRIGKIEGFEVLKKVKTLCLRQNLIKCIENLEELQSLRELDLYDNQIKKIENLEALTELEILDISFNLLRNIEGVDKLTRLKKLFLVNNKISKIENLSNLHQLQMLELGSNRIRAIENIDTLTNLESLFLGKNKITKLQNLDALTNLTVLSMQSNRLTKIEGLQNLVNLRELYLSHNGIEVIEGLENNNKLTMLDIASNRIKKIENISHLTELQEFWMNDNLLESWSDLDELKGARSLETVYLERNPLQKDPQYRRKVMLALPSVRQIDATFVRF

Key:
Experiment in all cases: log2 fold change, soluble protein after heating vs DMSO (PISA); higher = thermal stabilisation; K562 lysate, 10 uM; active = over 0.2 and 3.5 SD of the protein, either way, in both replicates (recomputed)
[1] = compound: C1=CC=C(C=C1)[C@H](COC2=CC3=C(C=C2)NC(=O)N3)NC(=O)C4=CC=CN(C4=O)CC5=CC(=C(C=C5)F)F
In short: (§1)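 Dounce homogenisation of K562 pellets in PBS pH 7.4 with 1 mM MgCl2 produced a crude extract, used at 1 mg/mL protein. Exposure to 10 μM compound lasted 30 min, and aliquots were then heated for 3 min across 48°C-58°C, pooled and brought to 0.5% NP-40 at 4°C. The supernatant after 21,000xg for 90 min was quantified by TMTpro 16plex LC-MS/MS with channel sums equalised. Duplicate values are given as log-two fold change in thermal stability relative to solvent controls.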

[2] = compound: CC1=C(SC2=C1C(=N[C@H](C3=NN=C(N32)C)CC(=O)N)C4=CC=C(C=C4)Cl)C
In short: as §1

[3] = compound: CC1=C2C(=CC=C1)N=C(N(C2=O)C3=CC=CC=C3C)CN4C=NC5=C(N=CN=C54)N
In short: as §1

[4] = compound: Cc1sc2c(c1C)C(c1ccc(Cl)cc1)=N[C@@H](CC(=O)OC(C)(C)C)c1nnc(C)n1-2
In short: as §1

[5] = compound: c1ccc([C@@H]2C[C@H]2NC2CCNCC2)cc1
In short: as §1

Measured: log2 fold change

PRKRA (UniProt O75569)
inactive: [1] -0.002 | [2] 0.027 | [3] 0.031 | [4] 0.029 | [5] 0.036

PRMT5 (UniProt O14744)
inactive: [1] -0.01 | [2] 0.031 | [3] 0.006 | [4] -0.013 | [5] 0.002

PRKX (UniProt P51817)
inactive: [1] -0.081 | [2] 0.014 | [3] 0.06 | [4] -0.001 | [5] -0.004

PRKCSH (UniProt K7ELL7)
inactive: [1] 0.045 | [2] -0.027 | [3] -0.157 | [4] -0.112 | [5] -0.048

PRKAB1 (UniProt Q9Y478)
inactive: [1] -0.024 | [2] 0.051 | [3] -0.032 | [4] -0.026 | [5] -0.067

PRDM2 (UniProt Q13029)
inactive: [1] 0.255 | [2] -0.094 | [3] -0.068 | [4] 0.043 | [5] -0.014

PQBP1 (UniProt O60828)
inactive: [1] 0.059 | [2] -0.031 | [3] -0.001 | [4] 0.02 | [5] -0.039

PPP2R1A (UniProt P30153)
inactive: [1] -0.017 | [2] 0.014 | [3] -0.001 | [4] 0.006 | [5] 0.039

PPP1R9A isoform 3 (UniProt Q9ULJ8)
inactive: [1] 0.046 | [2] -0.006 | [3] 0.039 | [4] 0.026 | [5] -0.019

PRKCQ (UniProt Q04759)
inactive: [1] 0.004 | [2] -0.003 | [3] 0.066 | [4] 0.045 | [5] -0.015

PPM1E (UniProt Q8WY54)
inactive: [1] 0.008 | [2] -0.033 | [3] -0.037 | [4] 0.017 | [5] -0.067

PRPF4 (UniProt O43172)
inactive: [1] 0.016 | [2] -0.004 | [3] -0.001 | [4] 0.034 | [5] 0.085

PROSER1 (UniProt Q86XN7)
inactive: [1] -0.053 | [2] 0.141 | [3] 0.056 | [4] -0.003 | [5] 0.374

PPP1R8 (UniProt Q12972)
inactive: [1] 0.006 | [2] 0.017 | [3] 0.003 | [4] 0.059 | [5] -0.142

PRDX2 (UniProt P32119)
inactive: [1] 0.016 | [2] 0.022 | [3] -0.033 | [4] 0.031 | [5] -0.087

PRKACA (UniProt P17612)
inactive: [1] 0.029 | [2] 0.019 | [3] 0.008 | [4] -0.013 | [5] -0.245

PPP1R18 (UniProt Q6NYC8)
inactive: [1] 0.011 | [2] 0.017 | [3] 0.06 | [4] 0.002 | [5] 0.009

PPP1R14A (UniProt Q96A00)
inactive: [1] 0.085 | [2] -0.02 | [3] 0.013 | [4] -0.019 | [5] -0.076

PPP1R10 (UniProt Q96QC0)
inactive: [1] -0.025 | [2] -0.002 | [3] 0.011 | [4] 0.014 | [5] 0.001

PRKAR2B (UniProt P31323)
inactive: [1] -0.028 | [2] 0.018 | [3] 0.011 | [4] -0.002 | [5] 0.068

PPM1F (UniProt P49593)
inactive: [1] 0.027 | [2] 0.001 | [3] 0.001 | [4] -0.001 | [5] -0.039

PRC1 (UniProt O43663)
inactive: [1] 0.089 | [2] 0.037 | [3] 0.026 | [4] 0.03 | [5] 0.043

PPP1CB (UniProt P62140)
inactive: [1] -0.012 | [2] 0.042 | [3] -0.02 | [4] 0.002 | [5] 0.011

PPP2R1B isoform 2 (UniProt P30154)
inactive: [1] -0.023 | [2] -0.033 | [3] -0.022 | [4] 0.011 | [5] 0.026

PPP4R2 (UniProt Q9NY27)
inactive: [1] 0.019 | [2] 0.025 | [3] -0.001 | [4] -0.026 | [5] -0.009

10 successive entries already listed:
PRDM2 (UniProt Q13029)
inactive: [1] 0.255 | [2] -0.094 | [3] -0.068 | [4] 0.043 | [5] -0.014

PQBP1 (UniProt O60828)
inactive: [1] 0.059 | [2] -0.031 | [3] -0.001 | [4] 0.02 | [5] -0.039

PPP2R1A (UniProt P30153)
inactive: [1] -0.017 | [2] 0.014 | [3] -0.001 | [4] 0.006 | [5] 0.039

PPP1R9A isoform 3 (UniProt Q9ULJ8)
inactive: [1] 0.046 | [2] -0.006 | [3] 0.039 | [4] 0.026 | [5] -0.019

PRKCQ (UniProt Q04759)
inactive: [1] 0.004 | [2] -0.003 | [3] 0.066 | [4] 0.045 | [5] -0.015

PPM1E (UniProt Q8WY54)
inactive: [1] 0.008 | [2] -0.033 | [3] -0.037 | [4] 0.017 | [5] -0.067

PRPF4 (UniProt O43172)
inactive: [1] 0.016 | [2] -0.004 | [3] -0.001 | [4] 0.034 | [5] 0.085

PROSER1 (UniProt Q86XN7)
inactive: [1] -0.053 | [2] 0.141 | [3] 0.056 | [4] -0.003 | [5] 0.374

PPP1R8 (UniProt Q12972)
inactive: [1] 0.006 | [2] 0.017 | [3] 0.003 | [4] 0.059 | [5] -0.142

PRDX2 (UniProt P32119)
inactive: [1] 0.016 | [2] 0.022 | [3] -0.033 | [4] 0.031 | [5] -0.087

Following part

PPT2 isoform 3 (UniProt Q9UMR5)
inactive: [1] 0.01 | [2] -0.03 | [3] -0.046 | [4] -0.048 | [5] -0.08

PPIL4 (UniProt Q8WUA2)
inactive: [1] 0.028 | [2] 0.01 | [3] -0.001 | [4] 0.029 | [5] -0.021

PRKCD (UniProt Q05655)
inactive: [1] 0.003 | [2] 0.022 | [3] 0.028 | [4] -0.003 | [5] 0.023

PREP (UniProt P48147)
inactive: [1] 0.006 | [2] 0.02 | [3] 0.013 | [4] -0.02 | [5] 0.03

PPM1A isoform 3 (UniProt P35813)
inactive: [1] 0.015 | [2] 0 | [3] -0.104 | [4] -0.04 | [5] -0.001

PPIL1 (UniProt Q9Y3C6)
inactive: [1] -0.002 | [2] 0.014 | [3] 0.055 | [4] -0.009 | [5] -0.008

PROSER2 (UniProt Q86WR7)
inactive: [1] 0.017 | [2] -0.003 | [3] -0.008 | [4] 0.029 | [5] 0.069

PPP1R7 (UniProt Q15435)
inactive: [1] 0.005 | [2] -0.008 | [3] 0.011 | [4] -0.018 | [5] 0.031
